# The list shows a part of the results. These are further read-outs of the screen, such as a control signal, another cell line or another target. No call is given for them. The list favours compounds with an active or inconclusive main result. Words in brackets tell the shape of the fitted curve; partial curves, single points and poor fits give uncertain potencies.
# Assay: qHTS Assay for Modulators of Lamin A Splicing
# Conditions: HeLa LMNA splicing GFP/RFP minigene ratio, 48 h
# In short: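 S3 HeLa stable clones carrying a lamin A-EGFP splicing minigene plus DsRed2 were seeded at 600 cells/well in Opti-MEM with 2% FBS, pin-dosed and incubated 48 h at 37°C. Acumen cytometry (488 nm) gave the GFP/RFP total-intensity ratio.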
# [1] = measured here: RFP viability control channel
# [2] = measured here: GFP splicing reporter channel
Structure (SMILES),AC50 [1],AC50 [2]
Fc1cccc(Cl)c1/C=N/Nc1c(Cl)cncc1Cl,"12.6 µM [rising, single point]",
COc1ccccc1C(=O)NNC(=O)C(=O)NCc1ccccc1,"0.355 µM [falling, full curve]",
Oc1ccc(-c2onc(C(F)(F)F)c2-c2cscn2)c(O)c1,"11.2 µM [rising, partial curve, poor fit]",
COC(=O)c1ccc(C2C=C(c3ccc(Cl)cc3)Nc3nc4ccccc4n32)cc1 (centres undefined),"6.31 µM [rising, partial curve, poor fit]","1.78 µM [rising, partial curve]"
Cc1ccc(-c2noc(C3CCCN(C(=O)c4c(F)cccc4F)C3)n2)cc1 (centres undefined),"20 µM [rising, single point]","22.4 µM [rising, single point]"
Cc1cc2nn(-c3ccccc3)nc2cc1NC(=O)c1cccs1,"17.8 µM [rising, partial curve]","11.2 µM [rising, partial curve, poor fit]"
CCOC(=O)Cn1cc(C(=O)OC)c2ccccc21,"0.0708 µM [falling, full curve, poor fit]",
COc1ccc(NC(=O)CCSc2ccc(C)cc2)cc1S(=O)(=O)Nc1ccccc1Cl,"17.8 µM [rising, partial curve, poor fit]",
Cc1ccc(C(=O)NC(=S)Nc2ccccc2C(F)(F)F)cc1,"15.8 µM [rising, partial curve]","11.2 µM [rising, partial curve]"
Cc1c(C(=O)OC2CCCC2C)[nH]c2c1C(=O)CCC2 (centres undefined),"14.1 µM [rising, single point]",
CCOC(=O)N1CCC(N2Cc3cccc(C(=O)NCc4ccc(OC)cc4)c3C2=O)CC1,"35.5 µM [rising, single point]","0.0562 µM [rising, full curve, poor fit]"
C=CCn1c(CNc2ccc(C)cc2)nnc1SCC(=O)N/N=C/c1ccc(O)cc1O,"12.6 µM [rising, single point]",
O=C(Nc1ccccc1F)c1c[nH]c(=O)[nH]c1=O,,"11.2 µM [rising, partial curve]"
Cc1nc2c(C(=O)NCc3cccs3)cnn2c(C)c1Cc1ccccc1,"0.0251 µM [rising, full curve, poor fit]",
COc1ccc(Nc2nc(-c3ccccc3)nc3ccccc23)c(OC)c1,"10 µM [rising, partial curve]",
O=C(Nc1ccc(Cn2cccn2)cc1)c1ccc(COc2ccccc2Br)cc1,"5.62 µM [rising, full curve]","3.16 µM [rising, full curve]"
COc1ccc(N(CC(=O)Nc2ccc(C)cc2C)S(=O)(=O)c2ccccc2[N+](=O)[O-])c(OC)c1,"0.0282 µM [falling, full curve, poor fit]",
CCOc1ccc(C(=O)NCc2cccnc2)cc1,"14.1 µM [rising, single point]",

# Fetched by structure from the entries so far (three):
Structure (SMILES),AC50 [1],AC50 [2]
COc1ccccc1C(=O)NNC(=O)C(=O)NCc1ccccc1,"0.355 µM [falling, full curve]",
COc1ccc(N(CC(=O)Nc2ccc(C)cc2C)S(=O)(=O)c2ccccc2[N+](=O)[O-])c(OC)c1,"0.0282 µM [falling, full curve, poor fit]",
Cc1ccc(C(=O)NC(=S)Nc2ccccc2C(F)(F)F)cc1,"15.8 µM [rising, partial curve]","11.2 µM [rising, partial curve]"

# Next compounds:

Structure (SMILES),AC50 [1],AC50 [2]
COCCNc1nc(-c2ccc(N(C)C)cc2)nc2ccccc12,"35.5 µM [rising, single point]","15.8 µM [rising, single point]"
CC1Cc2nc(SCC(=O)Nc3ccc(F)cc3F)n(C)c(=O)c2S1 (centres undefined),"15.8 µM [rising, single point]",
O=C(C1CCN(c2ccc(N3CCOCC3)nn2)CC1)N1CCN(c2ccc(F)cc2)CC1,,"35.5 µM [rising, single point]"
COC(=O)NC(NC(=S)Nc1ccc([N+](=O)[O-])cc1)C(Cl)(Cl)Cl (centres undefined),"25.1 µM [rising, single point]",
CC(C)Oc1ccc(NC(=O)c2ccncc2)cc1,"15.8 µM [rising, partial curve]","2 µM [rising, partial curve]"
CCCN(CC(=O)Nc1ccc(F)c(F)c1F)CC(=O)Nc1c(Cl)cccc1Cl,"1 µM [rising, partial curve, poor fit]",
O=C(c1ccc(Cl)cc1)c1coc2ccc(O)cc12,"35.5 µM [rising, single point]","35.5 µM [rising, single point]"
CCOCc1cn(CC(=O)c2ccc([N+](=O)[O-])cc2)c(C)nc1=N,"14.1 µM [rising, single point]",
O=S(=O)(c1ccccc1)c1cnn(-c2ccccc2)c1-c1ccc(Cl)cc1,"35.5 µM [rising, single point]","20 µM [rising, single point]"
CCOC(=O)c1cnc(-c2ccccc2)nc1-c1ccccc1,"7.08 µM [falling, partial curve]","35.5 µM [falling, partial curve, poor fit]"
CC1(C)Cc2ccccc2C(NN=C2CCCC2)=N1,"0.00447 µM [falling, full curve, poor fit]",
Cc1ccc(C)c(NC(=O)C(Sc2nc3ccccc3c(=O)n2CC(C)C)c2ccccc2)c1 (centres undefined),"6.31 µM [rising, single point]",
Cc1cccc(N2CCN(C(=O)COc3ccc4c(c3)CCC4)CC2)c1C,"35.5 µM [rising, single point]",
Cc1ccc([N+](=O)[O-])cc1S(=O)(=O)N1CCCCC1C(=O)O (centres undefined),,"2 µM [falling, partial curve, poor fit]"
CC1CCCCN1C(=O)c1ccc2c(c1)N(Cc1cccc(Cl)c1)C(=O)c1ccccc1S2=O (centres undefined),"10 µM [rising, partial curve, poor fit]","12.6 µM [rising, partial curve, poor fit]"
O=C(c1ccccc1CCc1ccccc1)N1CCN(c2ccccn2)CC1,"35.5 µM [rising, single point]","35.5 µM [rising, single point]"
COc1cc2c3c(c1)C(C)CC(C)(C)N3C(=O)C2=O (centres undefined),,"7.08 µM [falling, full curve, poor fit]"
O=C(O)c1ccc(C2SCC(=O)N2Cc2ccco2)cc1 (centres undefined),"35.5 µM [rising, single point]",

# From PubChem BioAssay AID1487 (National Center for Advancing Translational Sciences (NCATS), 2009)
